Reference: PubChem BioAssay AID540256 (National Center for Advancing Translational Sciences (NCATS), 2011)
The whole screen tested about 300,000 compounds, of which about 3,700 (1.2%) were called active. Inconclusive means that the source gave no clear call. Such entries were picked first, then a sample of the others. The call rests on the fitted dose curve; tested in HEK293 cells. A potency beside an inconclusive call is a rough fit, not a confirmed value.

Assay: qHTS for Inhibitors of binding or entry into cells for Lassa Virus; further: nearly all actives have a fitted effect of over 50% in size
Settings: Lassa virus pseudotype entry inhibition, cell reporter; activity change, negative = inhibition: at 37.9 µM (top of the series) unless noted
On the % scale 0 is the no-effect control and ±100 the full control effect; potency means the concentration at half of the fitted maximal effect.

SMILES | Potency | activity change, negative = inhibition
O=C(CNC(=S)NC(=O)c1ccco1)c1ccccc1 | inconclusive: 11.2 µM [activator, partial curve, poor fit] | –
CCn1c(SCC(=O)Nc2cccc(C)n2)nc2c1c(=O)n(C)c(=O)n2C | inconclusive: 3.55 µM [inhibitor, single point] | –
CCOC(=O)C1=C(CN2CCOCC2)NC(=O)NC1c1cc(C)ccc1C (stereo not drawn) | – | inactive: -15.4%
O=C(Nc1ccccc1F)c1ccc(Cn2nc(N3CCN(c4ccccc4)CC3)ccc2=O)o1 | inconclusive: 12.6 µM [inhibitor, partial curve, poor fit] | –
Cn1cc(/C=N/NC(=O)c2cc3cc(Br)ccc3o2)c2ccccc21 | inconclusive: 22.4 µM [inhibitor, single point] | –
COc1ccccc1NC(=O)c1ccc(COc2ccc3c(c2)CCC3)cc1 | – | inactive: -1.09%
Cn1nc(C(=O)OCC(=O)N(Cc2ccccc2)C(C)(C)C)c2ccccc2c1=O | inconclusive: 2.82 µM [inhibitor, single point] | –
Cc1ccc(NC(=O)/C(Cl)=C/c2ccccc2)cc1C | inconclusive: 7.94 µM [inhibitor, partial curve, poor fit] | –
Cc1cc(Cl)c2c(c1)[C@]1(C(=O)N2)[C@@H]2C(=O)N(Cc3ccccc3)C(=O)[C@@H]2[C@@H]2CCCN21 | inconclusive: 9.2 µM [inhibitor, partial curve, poor fit] | –
COc1cc(OC)c(NC(=O)N2CCc3c([nH]c4ccccc34)C2c2ccccc2F)cc1Cl (stereo not drawn) | inconclusive: 25.1 µM [inhibitor, single point] | –
C=C(C)COc1ccc(-c2ncncc2Oc2ccc(OC)cc2)c(O)c1 | inconclusive: 0.282 µM [inhibitor, full curve] | –
CCOC(=O)Nc1ccc2c(C)cc(=O)oc2c1 | inconclusive: 3.26 µM [activator, full curve, poor fit] | –
Cc1ccc(-c2nnc(Nc3ccccc3O)c3ccccc23)cc1 | – | inactive: -11.9% [at 46.1 µM]
CC(=O)c1ccc(NC(=O)COc2ccccc2-c2nc(-c3ccc(C)cc3)no2)cc1 | inconclusive: 31.6 µM [inhibitor, single point] | –
Cn1c(=O)n(Cc2ccc(Cl)cc2)c(=O)c2c1nc1n2CCN1Cc1ccco1 | inconclusive: 29.1 µM [inhibitor, single point] | –
C/C(=N\NC(=O)Cc1c[nH]c2ccccc12)c1ccc2ccccc2c1 | active: 3.98 µM | –
COc1ccc(C(=O)Nc2ncccc2C)cc1S(=O)(=O)N1CCCc2ccccc21 | – | inactive: 4.57%
Cc1ccc(OCC(=O)Nc2ccccc2C(=O)OCc2cc(=O)n3ccsc3n2)cc1 | – | inactive: 25.6% [at 46.1 µM]
CCOc1ccc(-c2cnc(NCc3cccc4ccccc34)n2CCOC)cc1 | inconclusive: 35.5 µM [inhibitor, single point] | –
CC(=O)/C=C/c1ccc(C)o1 | – | inactive: 1.87%
Cc1ccc2sc(-c3ccc(N)cc3)nc2c1 | inconclusive: 3.55 µM [activator, partial curve, poor fit] | –
Cc1ccc(NC(=O)CN2C(=O)c3ccccc3S2(=O)=O)cc1C | inconclusive: 3.55 µM [inhibitor, partial curve, poor fit] | –

SMILES | Potency | activity change, negative = inhibition
Cc1cc(=O)n2ncnc2n1COCCO | inconclusive: 22.4 µM [activator, partial curve, poor fit] | –
O=C(COc1ccc2ccccc2c1)NCCc1ccc2c(c1)OCCO2 | inconclusive: 35.5 µM [inhibitor, single point] | –
Cc1c(C(=O)OC(C)C)[nH]c2c1C(=O)CCC2 | – | inactive: 10.7%
COc1cc(/C=C2\SC(N3CCC(C)CC3)=NC2=O)ccc1O | inconclusive: 0.447 µM [inhibitor, single point] | –
COc1ccc(NC(C)=O)cc1NC(=O)C1(c2cccs2)CCOCC1 | – | inactive: -12.1% [at 46.1 µM]
Cc1c(C(=O)N(CCc2ccccc2)Cc2ccccc2)cccc1[N+](=O)[O-] | inconclusive: 17.8 µM [inhibitor, partial curve, poor fit] | –
CC(C)(C)c1cc(NC(=O)c2cccs2)no1 | inconclusive: 10 µM [inhibitor, single point] | –
NS(=O)(=O)c1ccc(NC(=O)/C=C/c2ccc(S(=O)(=O)NCc3ccco3)cc2)cc1 | – | inactive: 7.75%
Cc1ccc(-n2nc3c(n2)/C(=N/O)CC/C3=N\O)cc1 | inconclusive: 25.1 µM [inhibitor, single point] | –
N#Cc1ccc(CSc2nnc(-c3ccncc3)o2)cc1 | – | inactive: -24.6% [at 46.1 µM]
CCOc1ccc(Cc2onc3c2C(=O)CCC3)cc1OCC | – | inactive: 14.9%
Cc1ccc(C(=O)/C=C/Nc2cccc([N+](=O)[O-])c2)o1 | inconclusive: 35.5 µM [inhibitor, single point] | –
Cc1cccc(C(=O)Oc2ccc(/C=N/NC(=O)c3cc(O)cc(O)c3)cc2)c1 | – | inactive: -13.9%
CCc1ccc(OCCOCC(O)CN2CCN(Cc3ccc(Cl)cc3)CC2)cc1 (stereo not drawn) | inconclusive: 29.1 µM [inhibitor, single point] | –
O=S(=O)(c1ccc(F)cc1)N(CC(O)Cn1c2ccccc2c2ccccc21)c1ccccc1 (stereo not drawn) | inconclusive: 31.6 µM [inhibitor, single point] | –
CCOC(=O)C1CCCN(CC(=O)Nc2nc(-c3ccccc3)cs2)C1 (stereo not drawn) | inconclusive: 22.4 µM [inhibitor, partial curve, poor fit] | –
COc1cccc(CN(C)C(=O)c2cc(-c3cccs3)nc3ccccc23)c1 | inconclusive: 14.1 µM [inhibitor, single point] | –
c1ccc(-n2nnnc2SCc2cccc3nsnc23)cc1 | inconclusive: 18.3 µM [inhibitor, single point] | –
COc1ccc(NC(=O)CSc2nnc3c4c(nc(-c5ccccc5)n23)CC(C)(C)OC4)cc1 | inconclusive: 1.26 µM [inhibitor, single point] | –
Cc1ccc(C)c(Cn2c(O)c(N=NC(=S)Nc3ccccc3F)c3ccccc32)c1 | inconclusive: 1.3 µM [inhibitor, full curve, poor fit] | –
O=C(Nc1ccc2c(c1)OCCO2)c1ccccc1F | inconclusive: 7.94 µM [inhibitor, partial curve] | –

Some of these compounds in order of molar mass, ascending:
SMILES | Potency | activity change, negative = inhibition
Cc1ccc(C(=O)/C=C/Nc2cccc([N+](=O)[O-])c2)o1 | inconclusive: 35.5 µM [inhibitor, single point] | –
O=C(Nc1ccc2c(c1)OCCO2)c1ccccc1F | inconclusive: 7.94 µM [inhibitor, partial curve] | –
CCOc1ccc(Cc2onc3c2C(=O)CCC3)cc1OCC | – | inactive: 14.9%
O=C(COc1ccc2ccccc2c1)NCCc1ccc2c(c1)OCCO2 | inconclusive: 35.5 µM [inhibitor, single point] | –
Cc1c(C(=O)N(CCc2ccccc2)Cc2ccccc2)cccc1[N+](=O)[O-] | inconclusive: 17.8 µM [inhibitor, partial curve, poor fit] | –
COc1cccc(CN(C)C(=O)c2cc(-c3cccs3)nc3ccccc23)c1 | inconclusive: 14.1 µM [inhibitor, single point] | –
CCc1ccc(OCCOCC(O)CN2CCN(Cc3ccc(Cl)cc3)CC2)cc1 (stereo not drawn) | inconclusive: 29.1 µM [inhibitor, single point] | –
NS(=O)(=O)c1ccc(NC(=O)/C=C/c2ccc(S(=O)(=O)NCc3ccco3)cc2)cc1 | – | inactive: 7.75%
